# In publication PMC7008243:
# Protein sequences, listed by entry. Tags and fused reporters are not part of them.
# UniProt P10361: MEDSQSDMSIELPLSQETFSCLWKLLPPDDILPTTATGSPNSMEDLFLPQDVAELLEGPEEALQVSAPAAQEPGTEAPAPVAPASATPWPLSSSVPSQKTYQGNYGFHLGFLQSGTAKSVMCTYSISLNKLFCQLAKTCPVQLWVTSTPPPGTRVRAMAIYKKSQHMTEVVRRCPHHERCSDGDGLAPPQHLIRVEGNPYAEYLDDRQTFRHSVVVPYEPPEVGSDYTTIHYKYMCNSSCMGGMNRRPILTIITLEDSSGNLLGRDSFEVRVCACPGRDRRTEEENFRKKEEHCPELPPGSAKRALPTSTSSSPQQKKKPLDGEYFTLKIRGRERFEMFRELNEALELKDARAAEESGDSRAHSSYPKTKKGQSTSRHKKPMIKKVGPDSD
# UniProt P49950: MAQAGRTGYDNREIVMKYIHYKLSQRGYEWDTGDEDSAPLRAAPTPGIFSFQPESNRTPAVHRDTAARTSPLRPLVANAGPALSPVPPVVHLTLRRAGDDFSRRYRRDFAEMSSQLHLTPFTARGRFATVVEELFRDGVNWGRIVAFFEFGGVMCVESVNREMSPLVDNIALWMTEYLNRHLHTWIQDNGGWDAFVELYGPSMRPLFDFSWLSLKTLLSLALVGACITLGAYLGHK
# These are yes or no findings as the source states them, for the method shown. In cells and extracts the contact can be indirect. Some entries that bind do so weakly or less than the wild type.
# Target: p53 (rat (endogenous in kidney tissue)) (UniProt P10361)
# Assay: co-IP; kidney tissue lysate (about 300 ug total protein) incubated overnight at 4°C with anti-P53, precipitated with protein A/G-Plus-Agarose 4 h at 4°C, nonspecific IgG as control; blotted for Bcl-xL and Bcl-2; rats of the sham, 5/6 (A/I), 5/6 (A/I)+SSR and 5/6 (A/I)+Losartan groups
row,Substance,binding
1,Bcl-xL (from UniProt P53563-1 1-233),binds
2,Bcl-2 (from UniProt P49950 1-236),binds
